From patent US20240229055A9, “MOGROSIDE COMPOSITIONS AND METHODS OF PRODUCING SAME” (Elo Life Systems, priority 2022, published 2024)

Tested on: sensory panel of experienced judges
Assay: Descriptive analysis of sweetener attributes on a 15-cm line scale, low (0) to high (60)
Format: in vivo, human
Settings: solutions in spring water
Text: The same samples described above were presented to a panel of 6-9 experienced judges for descriptive analysis. Solutions were blind-coded with random 3-digit codes and served at room temperature for evaluation. Panelists individually scored attributes of each sample, such as sweetness intensity, bitterness, astringency, and the presence of side flavors such as licorice or fruitiness. Scores were based on a 15-cm line scale marked with evenly spaced 5-point increments from low (0) to high (60). Samples were evaluated in duplicate. Water and […] crackers were provided for rinsing between samples. A solution of […] was made at 410 ppm in spring water (Ice Mountain, retail) to be about 6 SEV. A second solution was made at about 6 SEV of purified mogroside-V (Chem Faces, CFS202202) at 325 ppm. A panel of 7-8 trained judges evaluated the temporal properties and taste attributes of each sample, including blind duplicates, in the same manner described previously in the Mogroside Blend 80/15/5 Taste Quality sections. The panel also evaluated the intensity of several sensory attributes such as bitterness, astringency, caramel flavor, and fruitiness. The same 15-cm line scale was used for scoring, labeled from low (0) to high (60) with evenly spaced 5-point increments. The samples were served in 4-oz soufflé cups that were labeled with random 3-digit codes. Samples were evaluated at room temperature and included blind duplicates. Water and […] crackers were provided for rinsing between samples. A 400-ppm solution of V90 (Huacheng Bio, LHGE-230401) was tasted as a reference at the beginning of the descriptive analysis session for calibration verification among panelists.

| Compound | taste quality in words | taste quality in words (listed as mogroside IIIA-1) |
| --- | --- | --- |
| C[C@H](CC[C@@H](O[C@@H]1O[C@H](CO[C@@H]2O[C@H](CO)[C@@H](O)[C@H](O)[C@H]2O)[C@@H](O)[C@H](O)[C@H]1O[C@@H]1O[C@H](CO)[C@@H](O)[C@H](O)[C@H]1O)C(C)(C)O)[C@H]1CC[C@@]2(C)[C@@H]3CC=C4[C@@H](CC[C@H](O[C@@H]5O[C@H](CO[C@@H]6O[C@H](CO)[C@@H](O)[C@H](O)[C@H]6O)[C@@H](O)[C@H](O)[C@H]5O)C4(C)C)[C@]3(C)C(=O)C[C@]12C [11-oxo-mogroside V] | slight bitterness | – |
| C[C@H](CC[C@@H](O[C@@H]1O[C@H](CO[C@@H]2O[C@H](CO)[C@@H](O)[C@H](O)[C@H]2O)[C@@H](O)[C@H](O)[C@H]1O[C@@H]1O[C@H](CO)[C@@H](O)[C@H](O)[C@H]1O)C(C)(C)O)[C@H]1CC[C@@]2(C)[C@@H]3CC=C4[C@@H](CC[C@H](O)C4(C)C)[C@]3(C)[C@H](O)C[C@]12C [Mogroside IIIA-1, mogroside III-A1] | strongly bitter with a strong lingering bitter aftertaste | strong bitter aftertaste that almost immediately overwhelmed any lingering sweet sensation |
| C=C1C[C@@]23CC[C@H]4[C@@](C)(CCC[C@@]4(C)C(=O)O[C@@H]4O[C@H](CO)[C@@H](O)[C@H](O)[C@H]4O)[C@@H]2CC[C@]1(O[C@@H]1O[C@H](CO)[C@@H](O)[C@H](O[C@@H]2O[C@H](CO)[C@@H](O)[C@H](O)[C@H]2O)[C@H]1O[C@@H]1O[C@H](CO)[C@@H](O)[C@H](O)[C@H]1O)C3 [Rebaudioside A, rebaudioside A] | a bitter taste continued to linger; also recorded: notable bitterness compared to the other sweeteners | – |

Entries after “also recorded” stand apart in the source; their conditions may differ.
